From paper doi:10.1101/2022.12.17.520852
Results are given in words; binding and its absence hold for the method and conditions named. For part of these data: Binding seen in cells or lysates may run through a third protein. Some entries that bind do so weakly or less than the wild type.

The chains behind the UniProt entries cited, without tags or fusion partners.
UniProt P49023: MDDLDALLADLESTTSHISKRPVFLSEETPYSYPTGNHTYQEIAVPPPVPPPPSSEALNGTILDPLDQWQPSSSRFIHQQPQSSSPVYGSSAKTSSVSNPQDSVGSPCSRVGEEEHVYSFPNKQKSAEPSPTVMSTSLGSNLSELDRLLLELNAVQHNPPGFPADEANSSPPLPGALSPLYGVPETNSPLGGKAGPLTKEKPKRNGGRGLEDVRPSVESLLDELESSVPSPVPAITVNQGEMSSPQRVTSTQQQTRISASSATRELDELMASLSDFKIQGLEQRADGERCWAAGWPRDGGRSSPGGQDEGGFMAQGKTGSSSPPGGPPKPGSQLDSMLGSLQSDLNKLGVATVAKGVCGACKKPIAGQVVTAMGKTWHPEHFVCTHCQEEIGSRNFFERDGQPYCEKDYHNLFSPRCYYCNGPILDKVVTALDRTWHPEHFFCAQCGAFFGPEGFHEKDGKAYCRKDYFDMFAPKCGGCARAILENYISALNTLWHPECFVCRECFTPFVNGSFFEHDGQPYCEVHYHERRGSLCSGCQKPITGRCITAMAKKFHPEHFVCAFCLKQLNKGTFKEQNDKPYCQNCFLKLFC
UniProt O43294: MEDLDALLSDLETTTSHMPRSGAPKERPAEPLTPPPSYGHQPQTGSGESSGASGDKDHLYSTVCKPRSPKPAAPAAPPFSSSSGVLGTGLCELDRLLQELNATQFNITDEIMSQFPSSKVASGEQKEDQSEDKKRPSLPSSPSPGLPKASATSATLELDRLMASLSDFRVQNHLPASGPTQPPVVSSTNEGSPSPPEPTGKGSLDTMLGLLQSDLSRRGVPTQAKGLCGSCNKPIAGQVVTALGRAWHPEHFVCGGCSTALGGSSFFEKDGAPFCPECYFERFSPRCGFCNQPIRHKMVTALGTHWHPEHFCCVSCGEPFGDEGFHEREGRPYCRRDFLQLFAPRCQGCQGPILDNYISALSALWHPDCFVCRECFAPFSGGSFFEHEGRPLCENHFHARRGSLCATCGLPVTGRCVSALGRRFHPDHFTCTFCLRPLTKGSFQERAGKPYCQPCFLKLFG
UniProt Q96AC1: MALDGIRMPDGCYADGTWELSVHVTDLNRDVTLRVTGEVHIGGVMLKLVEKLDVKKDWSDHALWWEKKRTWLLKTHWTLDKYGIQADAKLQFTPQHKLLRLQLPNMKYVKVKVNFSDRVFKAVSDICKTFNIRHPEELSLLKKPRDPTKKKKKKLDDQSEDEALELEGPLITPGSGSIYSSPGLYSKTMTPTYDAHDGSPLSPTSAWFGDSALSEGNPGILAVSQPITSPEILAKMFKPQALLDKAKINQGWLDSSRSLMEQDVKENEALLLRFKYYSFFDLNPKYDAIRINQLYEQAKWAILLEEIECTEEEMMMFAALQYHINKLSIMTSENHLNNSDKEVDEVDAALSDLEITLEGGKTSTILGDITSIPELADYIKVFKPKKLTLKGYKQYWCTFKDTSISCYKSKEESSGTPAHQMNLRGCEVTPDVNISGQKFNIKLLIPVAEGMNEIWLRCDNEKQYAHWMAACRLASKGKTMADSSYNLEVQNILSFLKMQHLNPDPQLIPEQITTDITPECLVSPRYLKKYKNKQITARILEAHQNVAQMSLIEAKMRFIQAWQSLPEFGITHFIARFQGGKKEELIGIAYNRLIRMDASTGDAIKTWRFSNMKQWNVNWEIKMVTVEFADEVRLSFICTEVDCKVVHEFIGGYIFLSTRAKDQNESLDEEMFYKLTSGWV

Experiments:
Flag-tagged PXN WT = Flag-tagged PXN WT (UniProt P49023); experiment: co-IP
[1] = molecular target: recombinant PXN WT (purified) (UniProt P49023); experiment: pull-down

binding (Flag-tagged PXN WT) | binding [1] | Substance
binds |  | HIC-5 (endogenous, HeLa) (from UniProt O43294 1-461)
binds |  | Kindlin-2 (endogenous, HeLa) (from UniProt Q96AC1 1-680)
 | binds | recombinant Kindlin-2 (purified) (from UniProt Q96AC1 1-680)
